Source: patent US20170022546
A negative result means that nothing was seen under these conditions. Tags and fusion partners may be left off the protein sequences shown. For at least one entry, the source does not settle the construct or the ends of the probe.

Biological target: T1, MBD-1x (75 aa methyl-CpG binding domain of MBD1) (UniProt Q9UIS9)
T1 sequence (looked up, limits assumed): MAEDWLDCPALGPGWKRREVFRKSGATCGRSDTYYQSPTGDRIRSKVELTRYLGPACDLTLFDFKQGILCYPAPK
Assay: EMSA
Details: purified recombinant protein

| Sequence | binding result (5mC at 36 CpG sites (M.SssI), dose-dependent complex, 80 mM KCl, pH 7.5, poly(dI-dC), complex persists up to 600 mM KCl, variant of uDLX1 827 bp, unmethylated) | binding result (no complex with increasing MBD-1x) |
| --- | --- | --- |
| GACCAATCCCCAGTGATTATGCAAGACAGCGGACCAATCAGCTCCGCCAGCTCATGAATATTTATGACCTTCGCTGAGTCAAAGCTTTGAACCGAGTTTGGGGAGCTCAGCAGCATCATGCTTAGACTTTTCAAAGAGACAAACTCCATTTTCTTATGAATGGAAAGTGAAAACCCCTGTTCCGCTTAAATTGGGTTCCTTCCTGTCCTGAGAAACATAGAGACCCCCAAAAGGGAAGCAGAGGAGAGAAAGTCCCACACCCAGACCCCGCGAGAAGAGATGACCATGACCACCATGCCAGAAAGTCTCAACAGCCCCGTGTCGGGCAAGGCGGTGTTTATGGAGTTTGGGCCGCCCAACCAGCAAATGTCTCCTTCTCCCATGTCCCACGGGCACTACTCCATGCACTGTTTACACTCGGCGGGCCATTCGCAGCCCGACGGCGCCTACAGCTCAGCCTCGTCCTTCTCCCGACCGCTGGGCTACCCCTACGTCAACTCGGTCAGCAGCCACGCATCCAGCCCCTACATCAGTTCGGTGCAGTCCTACCCGGGCAGCGCCAGCCTCGCCCAGAGCCGCCTGGAGGACCCAGGTACGTGCGCTTGCCAGGGAGAGGGAGAGGAGGAGGTACAAGGGAGAGAGGGAAAGAAGGAGCGGGGGAGAAGAGGAGAGGGAGAGAGAGAGAAAGAGAAGAGAGGAGAGCGAGGTGGGGTGGGGGTGGGGAGGGCGCGGGAGCAGTGGAGGTTTCGAATATCAATCTATAGATCCTTGTCACAGCAAATAAATTTTTTTAAAAATTCCCTCAATTTGCAACTATCCAGCCAAGG (double strand) [mDLX1 827 bp, M.SssI methylated] | binds | – |
| GACCAATCCCCAGTGATTATGCAAGACAGCGGACCAATCAGCTCCGCCAGCTCATGAATATTTATGACCTTCGCTGAGTCAAAGCTTTGAACCGAGTTTGGGGAGCTCAGCAGCATCATGCTTAGACTTTTCAAAGAGACAAACTCCATTTTCTTATGAATGGAAAGTGAAAACCCCTGTTCCGCTTAAATTGGGTTCCTTCCTGTCCTGAGAAACATAGAGACCCCCAAAAGGGAAGCAGAGGAGAGAAAGTCCCACACCCAGACCCCGCGAGAAGAGATGACCATGACCACCATGCCAGAAAGTCTCAACAGCCCCGTGTCGGGCAAGGCGGTGTTTATGGAGTTTGGGCCGCCCAACCAGCAAATGTCTCCTTCTCCCATGTCCCACGGGCACTACTCCATGCACTGTTTACACTCGGCGGGCCATTCGCAGCCCGACGGCGCCTACAGCTCAGCCTCGTCCTTCTCCCGACCGCTGGGCTACCCCTACGTCAACTCGGTCAGCAGCCACGCATCCAGCCCCTACATCAGTTCGGTGCAGTCCTACCCGGGCAGCGCCAGCCTCGCCCAGAGCCGCCTGGAGGACCCAGGTACGTGCGCTTGCCAGGGAGAGGGAGAGGAGGAGGTACAAGGGAGAGAGGGAAAGAAGGAGCGGGGGAGAAGAGGAGAGGGAGAGAGAGAGAAAGAGAAGAGAGGAGAGCGAGGTGGGGTGGGGGTGGGGAGGGCGCGGGAGCAGTGGAGGTTTCGAATATCAATCTATAGATCCTTGTCACAGCAAATAAATTTTTTTAAAAATTCCCTCAATTTGCAACTATCCAGCCAAGG (double strand) [uDLX1 827 bp, unmethylated] | – | no binding |
